All values are in %. How 0% and 100% were set is not recorded. Most values in the screen are low, and negative values occur. Compounds were drawn at random from those tested, without regard to their results.

The chains behind the UniProt entries cited, without tags or fusion partners.
UniProt E9BF75, entry or part of it: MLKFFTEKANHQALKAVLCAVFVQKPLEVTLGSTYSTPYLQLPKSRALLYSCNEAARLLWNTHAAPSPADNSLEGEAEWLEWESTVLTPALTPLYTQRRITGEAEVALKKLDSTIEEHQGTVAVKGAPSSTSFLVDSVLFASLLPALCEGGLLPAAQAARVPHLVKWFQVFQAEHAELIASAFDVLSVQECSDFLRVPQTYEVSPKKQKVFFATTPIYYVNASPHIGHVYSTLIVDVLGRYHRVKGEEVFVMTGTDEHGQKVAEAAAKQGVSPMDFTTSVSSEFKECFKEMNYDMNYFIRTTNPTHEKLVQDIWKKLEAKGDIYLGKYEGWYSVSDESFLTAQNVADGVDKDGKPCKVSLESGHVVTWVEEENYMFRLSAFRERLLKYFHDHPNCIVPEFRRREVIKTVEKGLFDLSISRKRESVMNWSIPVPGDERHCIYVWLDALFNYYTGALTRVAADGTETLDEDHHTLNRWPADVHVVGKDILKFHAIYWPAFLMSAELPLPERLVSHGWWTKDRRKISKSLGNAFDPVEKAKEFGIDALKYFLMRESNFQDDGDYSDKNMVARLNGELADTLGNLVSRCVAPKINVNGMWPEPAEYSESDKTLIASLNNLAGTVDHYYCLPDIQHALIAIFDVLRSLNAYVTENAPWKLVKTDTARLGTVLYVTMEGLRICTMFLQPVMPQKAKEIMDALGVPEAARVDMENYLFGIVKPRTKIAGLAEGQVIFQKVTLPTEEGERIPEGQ

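Methionyl-tRNA synthetase (putative), Leishmania donovani (UniProt E9BF75). Primary screen of methionyl-tRNA synthetase; the read-out is not stated. The test concentration is not given. Values are per cent inhibition. Of about 68,000 compounds tested this way, about 24 (0.035%) reached 50% or more in at least one test.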

CCc1ccccc1NC(=O)c1cccc(N(C)S(C)(=O)=O)c1C gave 7.163%. With CC(C)N(C)S(=O)(=O)N1CCCC1CC(=O)c1cccs1 (centres undefined) the screen gave -20.4%. O=C(Cc1cccc(F)c1)N1CCCCC1c1ccn2ccnc2n1 (centres undefined) gave -1.712%. Result for OCc1ccc(-c2nccn2CCC2=CCCCC2)o1 was 9.749%.

COc1ccc(Cl)cc1NC(=O)N(C)CC(O)COCCOC(C)C (centres undefined) gave 9.589%. Result for CC1CN(C)c2ccccc2CN1CCn1cncn1 (centres undefined) was 12.2%. CN(CC(=O)NC(N)=O)CC1(c2ccc(Br)cc2)CC1 read 7.182%. COCc1cn(C[C@H]2CC3CCN2C[C@@H]3C(=O)Nc2ccccc2)nn1 (some centres undefined) gave 6.593%.

Result for O=C(NCCc1ccccc1)N1CC[C@@H]2CNS(=O)(=O)[C@@H]2CC1 was 12.8%. For COc1ccccc1CC(=O)N1CCC(NCc2cc[nH]c2)CC1 the result was 11.75%. Result for Cc1noc(C(C)Nc2ccc3oc(C)nc3c2)n1 (centres undefined) was 3.663%. With O=C(NCc1csc(-c2cnccn2)n1)c1cnn2c1CCCC2 the screen gave 8.657%.

O=C(C1CC(F)(F)C1)N1C[C@@H]2CN(CC3CC3)CCO[C@@H]2C1 read 3.297%. Cc1ccc(CN2C[C@H](NC(=O)c3nccn3C)[C@H]3OCCC[C@H]32)o1 read 5.195%. Result for CC(C)(C)c1cnc(CN2CCC(CN3CCOCC3)CC2)o1 was 9.409%. CCOC(=O)c1nnc2ccccc2c1N1CCN(C(C)C)CC1 gave 11.18%.

For c1ccc(CNc2ncc(CN3CCCN4CCC[C@H]4C3)cn2)cc1 the result was 44.44%. Result for CC(CCN(C)C)NC(=O)c1cccc(C(F)(F)F)c1F (centres undefined) was 13.08%. CC(C(=O)N1CCOCC1)n1cc(Br)cn1 (centres undefined) read -43.47%. Result for CCC(CO)N(C/C(C)=C/c1ccco1)Cc1ccsc1 (centres undefined) was 16.09%.

Cn1nc(N2CCCC(C(=O)Nc3nc4ccccc4[nH]3)C2)ccc1=O (centres undefined) read 18.65%. For CCc1oc2ccc(NS(=O)(=O)CC)cc2c1C(=O)OC the result was 10.79%. Result for CC(CN1CCOCC1)OC(=O)c1ccccc1Cl (centres undefined) was 7.365%. Result for O=C(O)CN(C(=O)c1ccccc1)[C@H]1C[C@H]2CCOC[C@H]2C1 was 5.676%.

CN1CCN(C[C@H]2OC[C@@H]3CCN(Cc4ccsc4)C[C@@H]32)CC1 gave 18.27%. For Cc1ncccc1Oc1cncc(C2CCCN2Cc2cncn2C)n1 (centres undefined) the result was 18.71%. Result for Cc1scc(C(=O)N2CCC3(CCCN(C)C3=O)C2)c1-c1ccccc1 (centres undefined) was 17.03%. Result for Cc1cc(=O)n2ncnc2n1CC(O)c1ccc(F)cc1F (centres undefined) was 15.27%.

Result for O=C1CC(c2ccc(F)cc2)c2snc(C(=O)O)c2N1 (centres undefined) was -11.31%. C[C@@H]1CN(c2cc(N3CCC(O)CC3)ncn2)C[C@@]1(O)C1CCC1 read 1.961%. Cc1cnc(C)c(Oc2ccc(CN3CCCC3)cc2Cl)n1 read 5%. For NCCCC(=O)NCC1(O)CCCN(c2ccnc3cccnc23)C1 (centres undefined) the result was 10.25%.

With N#Cc1nccnc1NC1CCN(c2c(F)cccc2F)C1 (centres undefined) the screen gave 17.8%. Result for CN(C)C(=O)COC[C@@H]1CC[C@H]2[C@H](CCN2c2ccccn2)O1 was 13.17%. With CC(C#N)CSc1ccccc1NCC(=O)NC1CCCCC1 (centres undefined) the screen gave 10.87%. With CN1CCC2(CCCN(C(=O)c3cncn3C)C2)CC1 the screen gave 8.696%.

With Cc1nc(CN2CCO[C@H]3CN(C(=O)c4cccn4C)C[C@H]32)cs1 the screen gave 10.96%. With CC(C)(C)OC(=O)N1CC(CC(=O)NCc2ccnc(C3CC3)c2)C1 the screen gave 15.85%. Cc1nc(CNC(=O)NC2CCN(c3ncccc3Cl)C2)no1 (centres undefined) gave 13.89%. COc1cn(CC(=O)N2CCN(c3ccc(F)cc3)CC2)c(C)cc1=O gave 9.632%.

Result for Cc1cccc(CN2Cc3[nH]nc(COCC4CC4)c3C2)n1 was 3.114%. COc1ccccc1C1SCC(=O)Nc2c1c(=O)[nH]n2C1CCCCC1 (centres undefined) gave 6.971%. With Cc1cc(N2CCC3(CCC(=O)N(CCCO)C3)CC2)nc(N(C)C)n1 the screen gave 10.51%. Result for CCN(CC)C(=O)CCNC(=O)N1CCC(c2ccccc2)C1 (centres undefined) was 15.58%.

With Cc1ccc(CN2Cc3ccccc3O[C@]3(CC[C@H](CO)CC3)C2)o1 the screen gave 2.825%. With CCc1cc(C(=O)N2CCc3c(ncn3CCc3ccccc3)C2)[nH]n1 the screen gave 6.15%. With NC(=O)N1CCC2(CC1)CN(Cc1cccnc1)C(=O)CO2 the screen gave 18.52%. With Cn1nccc1-c1nc2c(cc1C(=O)O)CCN(C(=O)C1CC1)CC2 the screen gave 8.904%.

Cc1cccc(C(=O)N2CC[C@@H]3[C@H]2CCC(=O)N3c2ccccc2)n1 read -0.5495%. For CC(C1CC1)N(CC(=O)NCC(F)(F)F)C1CC1 (centres undefined) the result was 19.29%. O=C(NCc1ccc2c(c1)OCO2)Nc1cccnc1N1CCCC1 gave 19.33%. CC(C)CC(=O)N(C)CC(=O)Nc1ccc(Br)cn1 gave 17.05%.

Result for CC1(C)CC(N2Cc3nc(N4CCOCC4)ncc3C2=O)CC(C)(C)N1 was 6.299%. For N#Cc1cnc2cc(F)cc(F)c2c1NC1CCN(CC(N)=O)CC1 the result was 8.947%. With CC(O)CN1CCc2[nH]nc(C(c3ccccc3)c3ccccc3)c2C1 (centres undefined) the screen gave 13.71%. Result for CCCN1CCC(N2CCOC(Cc3cccc(OC)c3)C2)CC1 (centres undefined) was 7.902%.

CN(Cc1ccccc1)C(=O)CCN1C[C@H](C2CC2)[C@@H](N(C)C)C1 read 7.572%. Cc1cnn(C2CCCN(C(=O)c3ccc(C(N)=O)cn3)C2)c1 (centres undefined) read 10.54%. With NC(=O)c1csc(N2CCCC(c3nc4ccccc4[nH]3)C2)n1 (centres undefined) the screen gave 9.278%. For Cc1ccc(CC(=O)N2CCCC(c3cc(C(N)=O)[nH]n3)C2)cn1 (centres undefined) the result was 8.571%.

The last 8 entries again:

{"compound": "CC1(C)CC(N2Cc3nc(N4CCOCC4)ncc3C2=O)CC(C)(C)N1", "Inhibition": 6.299}
{"compound": "N#Cc1cnc2cc(F)cc(F)c2c1NC1CCN(CC(N)=O)CC1", "Inhibition": 8.947}
{"compound": "CC(O)CN1CCc2[nH]nc(C(c3ccccc3)c3ccccc3)c2C1", "stereo": "centres undefined", "Inhibition": 13.71}
{"compound": "CCCN1CCC(N2CCOC(Cc3cccc(OC)c3)C2)CC1", "stereo": "centres undefined", "Inhibition": 7.902}
{"compound": "CN(Cc1ccccc1)C(=O)CCN1C[C@H](C2CC2)[C@@H](N(C)C)C1", "Inhibition": 7.572}
{"compound": "Cc1cnn(C2CCCN(C(=O)c3ccc(C(N)=O)cn3)C2)c1", "stereo": "centres undefined", "Inhibition": 10.54}
{"compound": "NC(=O)c1csc(N2CCCC(c3nc4ccccc4[nH]3)C2)n1", "stereo": "centres undefined", "Inhibition": 9.278}
{"compound": "Cc1ccc(CC(=O)N2CCCC(c3cc(C(N)=O)[nH]n3)C2)cn1", "stereo": "centres undefined", "Inhibition": 8.571}

The values are deposited in ChEMBL (CHEMBL3988442, “University of Dundee, Small-Polar-MMV Screening Library” (2021)).